{"sequences": {"note": "Sequences of proteins named here, by UniProt entry; tags and fusion partners are left off. A change or cut given only in a name is not applied to a line headed by its entry.", "UniProt O94782": "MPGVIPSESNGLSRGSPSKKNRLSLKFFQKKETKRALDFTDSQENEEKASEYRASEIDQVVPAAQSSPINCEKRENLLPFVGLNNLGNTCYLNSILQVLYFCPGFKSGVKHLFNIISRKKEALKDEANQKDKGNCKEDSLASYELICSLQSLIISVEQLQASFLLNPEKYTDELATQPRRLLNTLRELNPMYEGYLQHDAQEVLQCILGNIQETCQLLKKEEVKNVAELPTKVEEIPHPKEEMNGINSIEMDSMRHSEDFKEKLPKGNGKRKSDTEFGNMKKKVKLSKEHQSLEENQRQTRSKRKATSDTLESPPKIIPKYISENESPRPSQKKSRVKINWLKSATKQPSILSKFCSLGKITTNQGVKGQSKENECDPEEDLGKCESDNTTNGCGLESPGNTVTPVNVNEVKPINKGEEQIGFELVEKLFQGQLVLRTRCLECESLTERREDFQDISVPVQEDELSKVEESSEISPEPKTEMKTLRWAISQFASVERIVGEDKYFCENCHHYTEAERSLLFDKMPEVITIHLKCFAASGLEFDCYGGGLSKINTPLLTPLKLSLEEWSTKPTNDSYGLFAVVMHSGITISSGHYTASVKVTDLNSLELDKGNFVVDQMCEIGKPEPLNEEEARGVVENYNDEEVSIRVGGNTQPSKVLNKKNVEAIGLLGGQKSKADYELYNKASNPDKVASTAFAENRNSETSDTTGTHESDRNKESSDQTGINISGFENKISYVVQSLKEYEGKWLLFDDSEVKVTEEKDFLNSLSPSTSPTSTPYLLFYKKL"}, "source": "PubChem BioAssay AID743255", "about": "(National Center for Advancing Translational Sciences (NCATS), 2014)", "note": "The whole screen tested about 390,000 compounds, of which about 910 (0.23%) were called active. Inconclusive results, whose numbers are uncertain, are shown with a selection of clear calls. The call rests on the fitted dose curve; in most records, active means well fitted inhibition curve with a large enough effect; inconclusive means small, poorly fitted or top-dose-only effect; inactive means no such curve, though single readings can be large or run the other way. Potencies beside an inconclusive call are fits to weak or partial responses and may not hold up. On the % scale 0 is the no-effect control and ±100 the full control effect; potency means the concentration at half of the fitted maximal effect."}
{"biological_target": "Ubiquitin carboxyl-terminal hydrolase 1 (Homo sapiens) (UniProt O94782)", "assay": "Inhibitors of USP1/UAF1: Primary Screen; further: nearly all actives have a fitted effect of over 60% in size", "details": "recombinant USP1/UAF1, Ub-Rhodamine cleavage fluorescence; activity change, negative = inhibition: at 57.1 µM (top of the series)", "in_short": "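In this screen, compounds sit with the deubiquitinase complex (1nM) for 15 min at room temperature before Ub-Rho is added at 150nM final. Fluorescence rise is then followed for 6 reads every 60 seconds.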"}
{"smiles": "CCn1c(C(=O)N2CCC(C(=O)N3CCN(c4cc(C)ccc4C)CC3)CC2)cc2sccc21", "Potency": "inconclusive: 50.1 µM [inhibitor, single point]"}
{"smiles": "COc1ccc(C2c3[nH]c4ccccc4c3CCN2CCCn2cccn2)c(C)c1C", "note": "(stereo not drawn)", "Potency": "inconclusive: 35.5 µM [inhibitor, partial curve]"}
{"smiles": "CC(C)O/C(=N\\S(=O)(=O)c1ccc(Cl)cc1)c1ccccc1", "activity change, negative = inhibition": "inactive: -8.89%"}
{"smiles": "COc1ccc(-c2sc3cc4c(cc3c2-c2ccc3c(c2)OCCO3)OCO4)cc1", "Potency": "inconclusive: 15.8 µM [inhibitor, partial curve]"}
{"smiles": "Cc1cccc(NC(=O)CSCC(=O)Nc2cc(C(F)(F)F)ccc2N2CCOCC2)c1", "Potency": "inconclusive: 0.251 µM [inhibitor, full curve, poor fit]"}
{"smiles": "CC(C)CC(=O)Nc1nnc(SCC(=O)NC2CCCC2)s1", "Potency": "inconclusive: 0.251 µM [inhibitor, full curve, poor fit]"}
{"smiles": "CCOC(=O)/C=C/c1ccc2c(c1)S(=O)(=O)N(Cc1ccc(OC)cc1)[C@H]2CC(=O)OCC", "Potency": "inconclusive: 50.1 µM [inhibitor, partial curve, poor fit]"}
{"smiles": "COc1ccc(CC(=O)NC2CC(=O)N(c3cccc(F)c3)C2)cc1OC", "note": "(stereo not drawn)", "Potency": "inconclusive: 15.8 µM [inhibitor, partial curve]"}
{"smiles": "CCN1C[C@@H]2[C@@H]3C(=O)N(C)C(=O)[C@@H]3[C@](Cc3ccccc3)(C1=O)N2C(=O)c1ccc(C)cc1", "Potency": "inconclusive: 0.708 µM [inhibitor, full curve, poor fit]"}
{"smiles": "CC(C)Oc1ccc(CNC(=O)C2CCN(c3nc4ccccc4nc3C(F)(F)F)CC2)cc1", "activity change, negative = inhibition": "inactive: -10.8%"}
{"smiles": "CCOc1cc(C(=O)Nc2ccncc2)cc(OCC)c1OCC", "Potency": "inconclusive: 5.62 µM [inhibitor, single point]"}
{"smiles": "CSc1nc2ccc3nc(NC(=O)c4ccc(C)cc4)sc3c2s1", "Potency": "inconclusive: 7.08 µM [inhibitor, partial curve]"}
{"smiles": "CCN(CC)C(=O)CSc1nc2c(sc(=S)n2-c2ccccc2)c(=O)n1Cc1ccco1", "activity change, negative = inhibition": "inactive: -18.4%"}
{"smiles": "C=CCn1c(C)cc(-c2csc(NC(=O)C3=COCCO3)n2)c1C", "Potency": "inconclusive: 44.7 µM [inhibitor, partial curve, poor fit]"}
{"smiles": "CC(=O)Nc1ccc2ccccc2c1", "activity change, negative = inhibition": "inactive: -1.17%"}
{"smiles": "CCCCCCCN1CCN=C1N(C)C", "Potency": "inconclusive: 12.6 µM [inhibitor, partial curve]"}
{"smiles": "C=C(C)C1CC=C(C)/C(=N/NC(=O)c2cccc([N+](=O)[O-])c2)C1", "note": "(stereo not drawn)", "activity change, negative = inhibition": "inactive: -19.6%"}
{"smiles": "CN(C(=O)CSc1nncn1-c1ccccc1)c1ccccc1", "Potency": "inconclusive: 56.2 µM [inhibitor, partial curve, poor fit]"}
